For 1 sequence, Kd results are on record in PMC5407808.

By Kd is commonly meant the free concentration of one partner at which half of the binding sites on the other are occupied at equilibrium, for simple one-to-one binding.

Tags and fusion partners may be left off the protein sequences shown.

This data set has as its system T1, HexA-6His (Photorhabdus luminescens TT01).
T1 sequence (looked up): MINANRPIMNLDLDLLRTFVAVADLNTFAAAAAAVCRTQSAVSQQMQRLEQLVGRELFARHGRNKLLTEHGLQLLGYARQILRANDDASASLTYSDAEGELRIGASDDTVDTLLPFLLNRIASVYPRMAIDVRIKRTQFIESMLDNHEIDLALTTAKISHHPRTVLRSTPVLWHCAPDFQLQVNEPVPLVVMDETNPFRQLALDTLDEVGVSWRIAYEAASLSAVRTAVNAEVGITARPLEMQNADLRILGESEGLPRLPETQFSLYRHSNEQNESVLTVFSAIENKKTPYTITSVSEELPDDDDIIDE
The data set can be described thus: SPR. Conditions: 1:1 fit, but not true 1:1 and no saturation up to 2000 nM, ka 1300 /M*s, kd 0.002 /s, no ligand added; 5' biotin on forward primer (PpcfA-Btn_fwd; position implied); SPR (Biacore T200, streptavidin chip, ~300 RU DNA): HBS-EP+ 10 mM HEPES pH 7.4, 150 mM NaCl, 3 mM EDTA, 0.05% Surfactant P20, 25 C, 30 ul/min; recombinant protein; residues 1-309; label: biotin; probe letters rebuilt from the primers and the genome.

For the sequence “TATTTGTCTTTATAATGATAATTTATTTTATATGATTTCACATAAGAATGTTTAATAATATCAATATATATCCTTATTATTAAATAATAATATCAAAAATTTATATGGGATTTTATTGATATAACTGTCAGAGTTGACAGTAGACTTTTAAGTGTAATTTTATAATTATAATTTTTGTTAATTAACCCTTGTGTGAGAACACAAATGAATGCGCTTATTGTTAATAGGTATGAGTTTATTCTCCATAGTTATTGGTAAATTGAATGGTTTCATTAATAAATTAATAGGTATATTAGATGTTTAATTGATTTATTTATTTGTTAATAAAAATACCTTGTCATCATTATATGTTCTTCATATTAACCTAGACATAAGGGATAAAGCTGGT (double strand) [PpcfA promoter fragment (400 bp)]”, the Kd worked out at 1.3 µM.
